From the supplement of paper PMC10849652
The other results are listed elsewhere or left out.

Sequences of proteins named here, by UniProt entry; tags and fusion partners are left off. A change or cut given only in a name is not applied to a line headed by its entry.
UniProt Q9BVJ6: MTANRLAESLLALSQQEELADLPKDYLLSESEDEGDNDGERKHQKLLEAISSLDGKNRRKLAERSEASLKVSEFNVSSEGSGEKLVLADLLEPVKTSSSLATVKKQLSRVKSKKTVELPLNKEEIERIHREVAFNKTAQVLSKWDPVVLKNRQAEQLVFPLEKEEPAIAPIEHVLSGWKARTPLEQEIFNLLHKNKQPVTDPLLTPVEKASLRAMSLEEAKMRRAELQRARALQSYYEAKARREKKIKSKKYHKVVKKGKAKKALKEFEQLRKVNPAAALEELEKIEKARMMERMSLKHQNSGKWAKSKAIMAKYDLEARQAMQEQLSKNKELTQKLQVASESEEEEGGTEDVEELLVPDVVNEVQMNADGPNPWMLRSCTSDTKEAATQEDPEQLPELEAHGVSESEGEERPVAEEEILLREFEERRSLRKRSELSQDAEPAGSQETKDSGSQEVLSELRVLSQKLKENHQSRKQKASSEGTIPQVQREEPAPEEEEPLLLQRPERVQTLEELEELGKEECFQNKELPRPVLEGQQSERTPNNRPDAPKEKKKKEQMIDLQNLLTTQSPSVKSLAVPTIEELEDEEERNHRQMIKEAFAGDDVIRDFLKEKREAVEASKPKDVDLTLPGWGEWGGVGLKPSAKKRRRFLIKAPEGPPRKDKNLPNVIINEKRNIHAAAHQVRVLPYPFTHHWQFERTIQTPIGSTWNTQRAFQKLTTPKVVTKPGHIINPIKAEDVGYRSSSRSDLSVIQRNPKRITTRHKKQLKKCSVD
UniProt Q8TED0: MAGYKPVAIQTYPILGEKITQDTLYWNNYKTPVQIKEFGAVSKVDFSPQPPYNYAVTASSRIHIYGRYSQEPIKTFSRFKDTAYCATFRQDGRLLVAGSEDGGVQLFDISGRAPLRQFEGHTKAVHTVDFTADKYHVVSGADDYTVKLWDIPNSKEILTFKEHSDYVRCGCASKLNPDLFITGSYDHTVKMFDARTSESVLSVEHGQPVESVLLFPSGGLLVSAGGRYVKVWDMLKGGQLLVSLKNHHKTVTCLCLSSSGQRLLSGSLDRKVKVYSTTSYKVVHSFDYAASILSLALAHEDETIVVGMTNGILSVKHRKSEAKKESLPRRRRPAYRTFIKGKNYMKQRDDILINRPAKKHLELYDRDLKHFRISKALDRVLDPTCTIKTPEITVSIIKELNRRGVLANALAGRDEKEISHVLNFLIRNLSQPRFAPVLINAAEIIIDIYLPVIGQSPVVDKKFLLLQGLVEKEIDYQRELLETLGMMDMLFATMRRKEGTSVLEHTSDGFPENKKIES
UniProt P54578: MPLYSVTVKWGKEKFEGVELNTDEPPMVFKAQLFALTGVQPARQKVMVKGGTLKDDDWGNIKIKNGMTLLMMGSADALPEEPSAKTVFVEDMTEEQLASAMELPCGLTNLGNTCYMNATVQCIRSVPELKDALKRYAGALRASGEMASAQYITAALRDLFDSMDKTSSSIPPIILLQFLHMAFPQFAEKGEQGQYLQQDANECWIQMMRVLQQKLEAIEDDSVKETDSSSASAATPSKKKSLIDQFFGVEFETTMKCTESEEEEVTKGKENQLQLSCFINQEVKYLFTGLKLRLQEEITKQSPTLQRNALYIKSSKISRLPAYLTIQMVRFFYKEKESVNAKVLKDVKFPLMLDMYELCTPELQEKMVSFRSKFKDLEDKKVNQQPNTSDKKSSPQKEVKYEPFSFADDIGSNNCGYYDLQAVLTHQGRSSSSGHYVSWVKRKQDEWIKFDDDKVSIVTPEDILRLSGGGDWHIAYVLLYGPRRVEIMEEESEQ
UniProt Q6BDS2: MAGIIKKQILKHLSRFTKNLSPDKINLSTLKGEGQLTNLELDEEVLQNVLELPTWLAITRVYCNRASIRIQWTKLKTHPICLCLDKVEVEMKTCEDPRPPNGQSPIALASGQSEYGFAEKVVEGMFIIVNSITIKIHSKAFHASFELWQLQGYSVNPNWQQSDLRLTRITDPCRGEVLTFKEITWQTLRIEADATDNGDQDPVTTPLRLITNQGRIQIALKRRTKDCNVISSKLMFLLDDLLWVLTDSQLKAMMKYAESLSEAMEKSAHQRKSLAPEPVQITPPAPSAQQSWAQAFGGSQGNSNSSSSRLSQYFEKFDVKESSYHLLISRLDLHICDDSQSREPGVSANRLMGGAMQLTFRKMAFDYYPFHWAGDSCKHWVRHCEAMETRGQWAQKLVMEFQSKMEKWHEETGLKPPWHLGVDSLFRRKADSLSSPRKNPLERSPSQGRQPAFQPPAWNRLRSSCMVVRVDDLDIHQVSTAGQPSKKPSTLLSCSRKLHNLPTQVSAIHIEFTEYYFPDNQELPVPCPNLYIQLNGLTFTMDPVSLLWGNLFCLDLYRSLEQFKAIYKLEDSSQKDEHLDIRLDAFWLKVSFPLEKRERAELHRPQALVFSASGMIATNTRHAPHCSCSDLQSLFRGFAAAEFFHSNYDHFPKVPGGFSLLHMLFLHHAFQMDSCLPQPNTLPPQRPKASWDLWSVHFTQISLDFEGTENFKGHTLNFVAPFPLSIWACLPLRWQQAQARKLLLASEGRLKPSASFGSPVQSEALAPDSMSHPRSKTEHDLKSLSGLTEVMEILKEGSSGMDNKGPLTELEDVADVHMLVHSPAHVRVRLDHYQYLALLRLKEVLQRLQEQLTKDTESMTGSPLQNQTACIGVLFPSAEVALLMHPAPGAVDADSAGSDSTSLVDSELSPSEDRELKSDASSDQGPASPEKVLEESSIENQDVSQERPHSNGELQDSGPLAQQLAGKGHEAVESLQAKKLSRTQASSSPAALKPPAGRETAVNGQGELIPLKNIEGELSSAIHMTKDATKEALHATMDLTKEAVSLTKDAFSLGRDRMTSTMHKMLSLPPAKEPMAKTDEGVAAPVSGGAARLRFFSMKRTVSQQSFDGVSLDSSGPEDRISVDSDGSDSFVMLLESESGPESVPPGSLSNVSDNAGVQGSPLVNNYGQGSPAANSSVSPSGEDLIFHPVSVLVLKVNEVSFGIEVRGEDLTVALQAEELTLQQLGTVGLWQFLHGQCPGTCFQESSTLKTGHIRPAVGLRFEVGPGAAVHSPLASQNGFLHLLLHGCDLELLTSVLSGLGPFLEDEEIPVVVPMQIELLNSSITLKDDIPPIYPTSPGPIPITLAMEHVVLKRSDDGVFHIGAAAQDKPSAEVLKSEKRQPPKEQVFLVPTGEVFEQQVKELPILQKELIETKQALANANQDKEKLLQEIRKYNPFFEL
UniProt Q9NVA1: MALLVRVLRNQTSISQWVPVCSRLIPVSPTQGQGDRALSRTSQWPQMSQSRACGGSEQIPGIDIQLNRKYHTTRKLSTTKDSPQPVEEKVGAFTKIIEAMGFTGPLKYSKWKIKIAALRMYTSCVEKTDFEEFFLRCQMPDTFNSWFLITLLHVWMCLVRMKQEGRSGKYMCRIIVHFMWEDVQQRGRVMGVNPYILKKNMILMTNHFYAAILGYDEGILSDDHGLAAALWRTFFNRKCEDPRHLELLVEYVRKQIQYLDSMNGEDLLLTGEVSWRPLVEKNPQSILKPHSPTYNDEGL
UniProt Q92900: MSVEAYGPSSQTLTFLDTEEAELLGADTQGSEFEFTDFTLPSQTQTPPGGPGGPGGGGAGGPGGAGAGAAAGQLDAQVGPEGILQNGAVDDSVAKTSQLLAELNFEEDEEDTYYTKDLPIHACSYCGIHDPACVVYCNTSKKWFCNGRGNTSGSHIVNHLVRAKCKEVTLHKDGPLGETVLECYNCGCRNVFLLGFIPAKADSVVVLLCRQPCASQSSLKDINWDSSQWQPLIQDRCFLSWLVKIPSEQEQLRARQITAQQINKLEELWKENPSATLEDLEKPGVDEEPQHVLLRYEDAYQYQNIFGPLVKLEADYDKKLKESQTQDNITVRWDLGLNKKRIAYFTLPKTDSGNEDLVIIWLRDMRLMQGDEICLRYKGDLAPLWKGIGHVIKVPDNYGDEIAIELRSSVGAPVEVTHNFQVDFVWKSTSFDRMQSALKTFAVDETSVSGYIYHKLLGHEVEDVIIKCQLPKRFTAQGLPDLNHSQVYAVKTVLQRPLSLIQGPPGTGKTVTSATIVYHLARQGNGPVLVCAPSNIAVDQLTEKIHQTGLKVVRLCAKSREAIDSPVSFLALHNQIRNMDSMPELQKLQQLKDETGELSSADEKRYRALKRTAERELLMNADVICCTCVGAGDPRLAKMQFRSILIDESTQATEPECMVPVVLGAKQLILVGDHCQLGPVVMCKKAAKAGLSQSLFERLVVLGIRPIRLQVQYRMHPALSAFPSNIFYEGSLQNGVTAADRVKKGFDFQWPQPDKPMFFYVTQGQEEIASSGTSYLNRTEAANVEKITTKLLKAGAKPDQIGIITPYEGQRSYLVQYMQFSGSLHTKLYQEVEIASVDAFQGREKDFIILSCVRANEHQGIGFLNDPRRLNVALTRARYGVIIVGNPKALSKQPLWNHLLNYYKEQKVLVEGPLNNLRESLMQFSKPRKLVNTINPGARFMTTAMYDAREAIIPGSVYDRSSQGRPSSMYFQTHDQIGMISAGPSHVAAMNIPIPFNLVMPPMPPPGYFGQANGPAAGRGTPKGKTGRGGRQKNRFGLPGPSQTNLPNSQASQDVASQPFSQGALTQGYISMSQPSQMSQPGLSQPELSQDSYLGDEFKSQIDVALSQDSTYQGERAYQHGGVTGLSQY
UniProt Q9NRR5, whole entry, looked up: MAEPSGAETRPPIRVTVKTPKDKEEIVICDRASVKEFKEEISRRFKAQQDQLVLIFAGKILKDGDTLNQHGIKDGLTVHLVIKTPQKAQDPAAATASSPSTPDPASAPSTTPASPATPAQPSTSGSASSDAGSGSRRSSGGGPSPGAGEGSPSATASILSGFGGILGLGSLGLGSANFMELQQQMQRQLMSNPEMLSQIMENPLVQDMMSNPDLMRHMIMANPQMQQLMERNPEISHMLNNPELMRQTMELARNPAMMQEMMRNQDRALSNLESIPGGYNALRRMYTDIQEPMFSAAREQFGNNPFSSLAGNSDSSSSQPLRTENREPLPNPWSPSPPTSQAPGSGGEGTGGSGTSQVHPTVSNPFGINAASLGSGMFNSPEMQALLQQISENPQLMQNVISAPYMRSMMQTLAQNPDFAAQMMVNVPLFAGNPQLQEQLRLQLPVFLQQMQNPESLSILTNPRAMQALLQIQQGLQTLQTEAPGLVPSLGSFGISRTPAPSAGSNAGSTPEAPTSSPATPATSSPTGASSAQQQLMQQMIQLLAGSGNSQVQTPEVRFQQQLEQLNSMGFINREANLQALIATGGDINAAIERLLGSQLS
UniProt Q9HA47: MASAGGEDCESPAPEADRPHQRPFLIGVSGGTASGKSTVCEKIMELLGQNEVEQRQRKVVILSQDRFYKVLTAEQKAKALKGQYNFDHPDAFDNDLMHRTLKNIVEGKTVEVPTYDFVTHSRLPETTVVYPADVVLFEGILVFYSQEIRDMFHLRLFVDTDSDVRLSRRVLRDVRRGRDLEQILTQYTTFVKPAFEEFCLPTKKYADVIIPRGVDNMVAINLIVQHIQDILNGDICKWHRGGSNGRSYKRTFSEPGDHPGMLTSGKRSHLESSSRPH
UniProt P51809, whole entry, looked up: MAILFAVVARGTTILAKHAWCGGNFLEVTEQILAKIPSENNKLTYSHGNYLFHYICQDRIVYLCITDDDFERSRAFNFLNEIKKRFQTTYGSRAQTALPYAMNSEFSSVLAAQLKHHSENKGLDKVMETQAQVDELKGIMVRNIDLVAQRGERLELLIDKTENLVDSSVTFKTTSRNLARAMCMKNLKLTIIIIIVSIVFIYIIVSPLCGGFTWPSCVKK
UniProt Q9Y5K5, whole entry, looked up: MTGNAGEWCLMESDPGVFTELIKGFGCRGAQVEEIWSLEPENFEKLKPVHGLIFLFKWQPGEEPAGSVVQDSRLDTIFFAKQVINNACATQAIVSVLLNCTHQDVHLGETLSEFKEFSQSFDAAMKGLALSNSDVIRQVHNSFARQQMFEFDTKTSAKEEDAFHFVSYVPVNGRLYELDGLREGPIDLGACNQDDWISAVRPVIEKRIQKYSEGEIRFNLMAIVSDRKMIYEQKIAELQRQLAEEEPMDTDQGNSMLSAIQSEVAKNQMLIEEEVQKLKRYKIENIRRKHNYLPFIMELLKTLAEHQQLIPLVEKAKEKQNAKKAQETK
UniProt Q9BV40: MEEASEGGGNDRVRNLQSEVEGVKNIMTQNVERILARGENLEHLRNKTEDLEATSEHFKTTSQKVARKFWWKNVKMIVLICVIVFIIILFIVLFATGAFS

Experiments:
Test in all cases: log2 fold change, soluble protein after heating vs DMSO (PISA); higher = thermal stabilisation; K562 cells, 10 uM, 30 min; active = over 0.2 and 3.5 SD of the protein, either way, in both replicates (recomputed)
bafetinib = compound: Cc1ccc(NC(=O)c2ccc(CN3CC[C@H](N(C)C)C3)c(C(F)(F)F)c2)cc1Nc1nccc(-c2cncnc2)n1 [bafetinib]
Outline: (§1)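 K562 cells at 2×10^6 cells/mL were given 10 μM compound for 30 min. Aliquots then went through 3 min of heating across 48°C-58°C, were pooled, and were extracted in PBS with 0.5% NP-40 at 4°C, and the supernatant after 21,000xg for 90 min was quantified by TMTpro 16plex LC-MS/MS with channel sums equalised. Thermal stability relative to control samples, from duplicates, is given as log2 fold change.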

[1] = compound: Cc1cccc(CC(=O)N2CCc3c2ccc(-c2cn(C)c4ncnc(N)c24)c3F)n1
Outline: as §1

nilotinib = compound: Cc1cn(-c2cc(NC(=O)c3ccc(C)c(Nc4nccc(-c5cccnc5)n4)c3)cc(C(F)(F)F)c2)cn1 [nilotinib]
Outline: as §1

[2] = compound: Cc1nc(Nc2n[nH]c3c2CN(C(=O)N[C@H](CN(C)C)c2ccccc2)C3(C)C)c2sccc2n1
Outline: as §1

dasatinib = compound: Cc1nc(Nc2ncc(C(=O)Nc3c(C)cccc3Cl)s2)cc(N2CCN(CCO)CC2)n1 [dasatinib]
Outline: as §1

[3] = compound: Cc1ncc(-c2ccnc(Nc3ccc(S(C)(=O)=O)cc3)n2)n1C(C)C
Outline: as §1

[4] = compound: Cn1cc(-c2ccc3c(c2)CCN3C(=O)Cc2cccc(C(F)(F)F)c2)c2c(N)ncnc21
Outline: as §1

[5] = compound: Cn1cc(-c2ccc3nnc(C(F)(F)c4ccc5ncccc5c4)n3n2)cn1
Outline: as §1

tipifarnib = compound: Cn1cncc1[C@@](N)(c1ccc(Cl)cc1)c1ccc2c(c1)c(-c1cccc(Cl)c1)cc(=O)n2C [tipifarnib]
Outline: as §1

mubritinib = compound: FC(F)(F)c1ccc(/C=C/c2nc(COc3ccc(CCCCn4ccnn4)cc3)co2)cc1 [mubritinib]
Outline: as §1

[6] = compound: NC(=O)Nc1cc(-c2cccc(F)c2)sc1C(=O)N[C@H]1CCCNC1
Outline: as §1

[7] = compound: NC(=O)c1cnc(N[C@@H]2CCCC[C@@H]2N)nc1Nc1cccc(-n2nccn2)c1
Outline: as §1

[8] = compound: NC1(c2ccc(-c3nc4ccn5c(=O)[nH]nc5c4cc3-c3ccccc3)cc2)CCC1
Outline: as §1

[9] = compound: NCC(=O)Nc1ccc(-n2nc(C(F)(F)F)cc2-c2ccc3c(ccc4ccccc43)c2)cc1
Outline: as §1

entinostat = compound: Nc1ccccc1NC(=O)c1ccc(CNC(=O)OCc2cccnc2)cc1 [entinostat]
Outline: as §1

vorinostat = compound: O=C(CCCCCCC(=O)Nc1ccccc1)NO [vorinostat]
Outline: as §1

citarinostat = compound: O=C(CCCCCCNC(=O)c1cnc(N(c2ccccc2)c2ccccc2Cl)nc1)NO [citarinostat]
Outline: as §1

silmitasertib = compound: O=C(O)c1ccc2c(c1)nc(Nc1cccc(Cl)c1)c1ccncc12 [silmitasertib]
Outline: as §1

[10] = compound: O=C1NC(=O)C(c2cnc3ccccn23)=C1c1cn2c3c(cc(F)cc13)CN(C(=O)N1CCCCC1)CC2
Outline: as §1

[11] = compound: c1cc(OCCN2CCCCC2)cc(-c2n[nH]c3ccc(-c4nnc[nH]4)cc23)c1
Outline: as §1

Measured: log2 fold change

VARS2, A0A0G2JL52
inactive: bafetinib -0.051 | [1] 0 | nilotinib -0.043 | [2] 0.012 | dasatinib 0.009 | [3] 0.003 | [4] 0.037 | [5] -0.021 | tipifarnib -0.01 | mubritinib -0.049 | [6] 0.013 | [7] -0.01 | [8] -0.087 | [9] -0.062 | entinostat 0.028 | vorinostat 0.106 | citarinostat 0.006 | silmitasertib -0.005 | [10] -0.048 | [11] -0.017

VARS (UniProt P26640)
inactive: bafetinib 0.024 | [1] -0.014 | nilotinib -0.043 | [2] -0.002 | dasatinib -0.039 | [3] 0.029 | [4] -0.033 | [5] -0.054 | tipifarnib -0.08 | mubritinib 0.035 | [6] -0.01 | [7] -0.042 | [8] -0.074 | [9] -0.033 | entinostat 0.016 | vorinostat 0.026 | citarinostat 0.041 | silmitasertib 0.021 | [10] 0.016 | [11] -0.038

UTP14A (UniProt Q9BVJ6)
inactive: bafetinib 0.157 | [1] 0 | nilotinib 0.011 | [2] -0.009 | dasatinib 0.07 | [3] -0.118 | [4] -0.285 | [5] -0.09 | tipifarnib 0.089 | mubritinib -0.086 | [6] 0.079 | [7] 0.048 | [8] 0.083 | [9] 0.076 | entinostat 0.012 | vorinostat 0 | citarinostat -0.04 | silmitasertib 0.128 | [10] 0.082 | [11] -0.092

UTP15 (UniProt Q8TED0)
inactive: bafetinib 0.205 | [1] 0.011 | nilotinib -0.067 | [2] 0.164 | dasatinib 0.097 | [3] 0.091 | [4] -0.255 | [5] -0.205 | tipifarnib 0.233 | mubritinib -0.173 | [6] 0.041 | [7] 0.141 | [8] 0.274 | [9] 0.084 | entinostat -0.089 | vorinostat -0.025 | citarinostat -0.1 | silmitasertib 0.2 | [10] 0.251 | [11] -0.158

USP14 (UniProt P54578)
inactive: bafetinib -0.03 | [1] 0.012 | nilotinib -0.006 | [2] -0.026 | dasatinib -0.087 | [3] 0.015 | [4] -0.001 | [5] -0.065 | tipifarnib -0.067 | mubritinib 0.029 | [6] -0.008 | [7] -0.006 | [8] -0.161 | [9] -0.057 | entinostat 0.025 | vorinostat -0.03 | citarinostat 0.051 | silmitasertib 0.007 | [10] -0.029 | [11] 0.005

UHRF1BP1 (UniProt Q6BDS2)
inactive: bafetinib 0.042 | [1] 0.015 | nilotinib 0.138 | [2] 0.003 | dasatinib 0.044 | [3] -0.023 | [4] 0.045 | [5] 0.021 | tipifarnib -0.005 | mubritinib 0.028 | [6] -0.019 | [7] 0.074 | [8] 0.019 | [9] 0.029 | entinostat -0.058 | vorinostat 0.004 | citarinostat -0.012 | silmitasertib -0.043 | [10] -0.032 | [11] 0.007

UQCC1 (UniProt Q9NVA1)
inactive: bafetinib -0.052 | [1] -0.018 | nilotinib 0.017 | [2] -0.014 | dasatinib 0.023 | [3] -0.001 | [4] 0.021 | [5] 0.041 | tipifarnib 0.064 | mubritinib 0.065 | [6] -0.021 | [7] 0.02 | [8] 0.003 | [9] 0.031 | entinostat -0.011 | vorinostat 0.002 | citarinostat 0.021 | silmitasertib 0.012 | [10] -0.002 | [11] 0.006

UPF1 (UniProt Q92900)
inactive: bafetinib -0.02 | [1] -0.01 | nilotinib -0.057 | [2] 0.043 | dasatinib -0.006 | [3] 0.058 | [4] -0.003 | [5] 0.009 | tipifarnib -0.023 | mubritinib 0.003 | [6] -0.013 | [7] -0.004 | [8] 0.031 | [9] -0.012 | entinostat -0.007 | vorinostat 0.005 | citarinostat 0.004 | silmitasertib -0.012 | [10] 0.024 | [11] -0.05

UBQLN4 (UniProt Q9NRR5)
inactive: bafetinib -0.033 | [1] -0.038 | nilotinib 0.019 | [2] -0.005 | dasatinib 0.063 | [3] 0.001 | [4] 0.009 | [5] -0.026 | tipifarnib 0.011 | mubritinib 0.015 | [6] 0.031 | [7] 0.059 | [8] 0.095 | [9] 0.028 | entinostat 0.023 | vorinostat -0.031 | citarinostat 0.01 | silmitasertib 0.002 | [10] 0.021 | [11] -0.028

USO1 isoform 2 (UniProt O60763)
inactive: bafetinib -0.055 | [1] 0.036 | nilotinib -0.039 | [2] -0.024 | dasatinib -0.052 | [3] 0.032 | [4] -0.017 | [5] -0.003 | tipifarnib -0.068 | mubritinib 0.032 | [6] -0.009 | [7] 0 | [8] -0.101 | [9] -0.024 | entinostat 0.032 | vorinostat 0.018 | citarinostat 0.032 | silmitasertib 0.059 | [10] -0.035 | [11] -0.013

UCK1 (UniProt Q9HA47)
inactive: bafetinib -0.041 | [1] 0.012 | nilotinib -0.004 | [2] -0.117 | dasatinib -0.032 | [3] -0.01 | [4] 0.043 | [5] -0.083 | tipifarnib 0.04 | mubritinib -0.022 | [6] -0.019 | [7] -0.013 | [8] 0.071 | [9] 0.017 | entinostat 0.012 | vorinostat 0.102 | citarinostat 0.1 | silmitasertib -0.066 | [10] -0.064 | [11] -0.062

VAMP7 (UniProt P51809)
inactive: bafetinib -0.066 | [1] 0.025 | nilotinib -0.034 | [2] -0.04 | dasatinib 0.002 | [3] 0.023 | [4] 0.017 | [5] 0.086 | tipifarnib -0.04 | mubritinib 0.003 | [6] -0.029 | [7] 0.001 | [8] -0.176 | [9] -0.069 | entinostat 0.009 | vorinostat 0.025 | citarinostat 0.086 | silmitasertib 0.027 | [10] -0.058 | [11] 0.026

UVRAG (UniProt Q9P2Y5)
inactive: bafetinib 0.068 | [1] -0.047 | nilotinib -0.084 | [2] 0.043 | dasatinib -0.178 | [3] 0.009 | [4] 0.026 | [5] 0.053 | tipifarnib -0.057 | mubritinib 0.023 | [6] -0.015 | [7] 0.051 | [8] -0.017 | [9] 0.208 | entinostat -0.02 | vorinostat -0.004 | citarinostat -0.008 | silmitasertib 0.042 | [10] 0.021 | [11] -0.017

UCHL5 (UniProt Q9Y5K5)
inactive: bafetinib 0.014 | [1] 0.045 | nilotinib -0.06 | [2] -0.071 | dasatinib -0.152 | [3] 0.007 | [4] 0.012 | [5] 0 | tipifarnib -0.093 | mubritinib -0.001 | [6] -0.003 | [7] -0.029 | [8] -0.124 | [9] -0.045 | entinostat 0.048 | vorinostat 0.063 | citarinostat 0.08 | silmitasertib 0.04 | [10] -0.084 | [11] -0.026

UPF3B (UniProt Q9BZI7)
inactive: bafetinib 0.108 | [1] 0.055 | nilotinib -0.15 | [2] 0.098 | dasatinib 0.143 | [3] -0.085 | [4] -0.225 | [5] -0.24 | tipifarnib 0.106 | mubritinib -0.098 | [6] 0.092 | [7] 0.11 | [8] 0.315 | [9] 0.096 | entinostat -0.079 | vorinostat 0 | citarinostat -0.125 | silmitasertib 0.149 | [10] 0.245 | [11] -0.278

Reprinted at random: 2 records from the list, in no set order.
UVRAG (UniProt Q9P2Y5)
inactive: bafetinib 0.068 | [1] -0.047 | nilotinib -0.084 | [2] 0.043 | dasatinib -0.178 | [3] 0.009 | [4] 0.026 | [5] 0.053 | tipifarnib -0.057 | mubritinib 0.023 | [6] -0.015 | [7] 0.051 | [8] -0.017 | [9] 0.208 | entinostat -0.02 | vorinostat -0.004 | citarinostat -0.008 | silmitasertib 0.042 | [10] 0.021 | [11] -0.017

UPF3B (UniProt Q9BZI7)
inactive: bafetinib 0.108 | [1] 0.055 | nilotinib -0.15 | [2] 0.098 | dasatinib 0.143 | [3] -0.085 | [4] -0.225 | [5] -0.24 | tipifarnib 0.106 | mubritinib -0.098 | [6] 0.092 | [7] 0.11 | [8] 0.315 | [9] 0.096 | entinostat -0.079 | vorinostat 0 | citarinostat -0.125 | silmitasertib 0.149 | [10] 0.245 | [11] -0.278

(further entries)

VAMP8 (UniProt Q9BV40)
inactive: bafetinib -0.108 | [1] -0.04 | nilotinib 0.022 | [2] -0.029 | dasatinib 0.073 | [3] 0.011 | [4] 0.012 | [5] 0.085 | tipifarnib 0.066 | mubritinib 0.018 | [6] 0.013 | [7] 0.077 | [8] -0.005 | [9] -0.046 | entinostat 0.005 | vorinostat -0.102 | citarinostat 0 | silmitasertib 0.021 | [10] 0.068 | [11] -0.004
